Values quoted from earlier work in patent US20140228318A1, “Curcumin formulations and methods for making such formulations” (Sanford Research/USD, priority 2010, published 2014).

Conditions: cited from earlier work

COc1cc(/C=C/C(=O)CC(=O)/C=C/c2ccc(O)c(OC)c2)ccc1O [CUR, bis(4-hydroxy-3-methoxyphenyl)-1,6-diene-3,5-dione]
pure CUR solubility in PBS solution (PBS solution): ~20 µg/mL | solubility in aqueous solution (aqueous solution): ≈ 20 μg/mL
